This is one part of the list.
Biological target: T1, OsSMF1 (Oryza sativa, UniProt Q6ZLB0 1-436)
T1 sequence: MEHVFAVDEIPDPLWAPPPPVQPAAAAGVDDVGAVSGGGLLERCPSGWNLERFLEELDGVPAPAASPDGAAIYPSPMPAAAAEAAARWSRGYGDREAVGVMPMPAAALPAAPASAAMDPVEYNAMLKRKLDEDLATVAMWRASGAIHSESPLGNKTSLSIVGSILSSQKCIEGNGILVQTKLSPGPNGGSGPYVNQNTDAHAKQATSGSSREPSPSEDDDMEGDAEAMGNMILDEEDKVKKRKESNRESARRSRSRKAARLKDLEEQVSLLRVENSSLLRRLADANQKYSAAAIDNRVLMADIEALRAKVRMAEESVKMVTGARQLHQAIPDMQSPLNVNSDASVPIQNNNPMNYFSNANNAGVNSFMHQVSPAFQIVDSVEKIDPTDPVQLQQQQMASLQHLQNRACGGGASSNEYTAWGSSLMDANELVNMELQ
Assay: protein-binding microarray (RPBM); PBS, 2% BSA, 51.3 ng/ul salmon testes DNA, 50 uM zinc acetate, 200 nM TF, 25 C, 1 h; high values mean tight binding
Conditions: protein: recombinant; tags: N-terminal polyhistidine and DsRed monomer fusion (pET32a); chain copies: 2; label: CyDye5-dUTP incorporated in the synthesized complementary strand; 3' TTTTT single-stranded linker to array surface; dsDNA, one strand shown
Procedure, shortened: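 Transcription factors were each fused at the N-terminus to a polyhistidine tag plus DsRed and expressed in E. coli BL21-CodonPlus before Ni–NTA purification. Binding to a double-stranded custom Agilent array was carried out with 200 nM protein at 25 °C for 1 h in PBS, 2% BSA, salmon testes DNA and 50 µM zinc acetate. The binding signal is per-feature fluorescence intensity, in arbitrary units, on an Axon 4000B scanner.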

Row | Sequence | binding signal
1 | TATGTTACCCAGATACGGCTGAAAAGCCACGTATCCGTATCGGAGTCACCTAGTGCAG | 6340 fluorescence intensity (a.u.)
2 | CGCCGCTGCCCGCATCATCACCACCTCACCTCACCTCAGCCGGAGTCACCTAGTGCAG | 4440 fluorescence intensity (a.u.)
3 | ACGAAGAGTTCGCAGGCTGACACGCAACAGTTGGCAGGCTCGGAGTCACCTAGTGCAG | 7060 fluorescence intensity (a.u.)
4 | CTTATCTACTTGATATTTGCATATGTATACAGTTTTACTGCGGAGTCACCTAGTGCAG | 3220 fluorescence intensity (a.u.)
5 | ACAAGGTCATAGATGCCACGATGAATAATTGCATTACTTTCGGAGTCACCTAGTGCAG | 3250 fluorescence intensity (a.u.)
6 | CACACAGCCGCCCTTGCCGACCGCCACCGCCGCAACCGCACGGAGTCACCTAGTGCAG | 3300 fluorescence intensity (a.u.)
7 | ACAACCACAGGGCTCACCGGCCAGCAACACGTCGACAACCCGGAGTCACCTAGTGCAG | 7860 fluorescence intensity (a.u.)
8 | GCGCGATGTTGGCGCCCGCGCTCTCGCCGCCGACGTGGACCGGAGTCACCTAGTGCAG | 9540 fluorescence intensity (a.u.)
9 | ATAAAGTGAGCGATGAGTCATATCATTATCTCCTGCCTGCCGGAGTCACCTAGTGCAG | 13000 fluorescence intensity (a.u.)
10 | TTCGAACGAGACTGCAAGAGTGATGACCTGGAAGTCCGCACGGAGTCACCTAGTGCAG | 5180 fluorescence intensity (a.u.)
11 | GATAGTTGCGGATTTCGTTGATGTCATGTGGAATACTGGACGGAGTCACCTAGTGCAG | 4620 fluorescence intensity (a.u.)
12 | CTTCTCGTCGGCTGCCACGCCGGCGCCCTGCACTGCAAGCCGGAGTCACCTAGTGCAG | 4130 fluorescence intensity (a.u.)
13 | GCTACTCCGCGTCGCCACGTCACTGAACGGGTTGCTCCGCCGGAGTCACCTAGTGCAG | 13500 fluorescence intensity (a.u.)
14 | AGGAACCTCAAGGTCTGCCACCACAGCGTGATTTTGATCACGGAGTCACCTAGTGCAG | 3310 fluorescence intensity (a.u.)
15 | GGGTACGTAGATGGAACTATTAGCGTATGATTAATTAAGTCGGAGTCACCTAGTGCAG | 31000 fluorescence intensity (a.u.)
16 | GCATATTATGTGCTTCCTCGTCAGGCCTCTGTAATGATCACGGAGTCACCTAGTGCAG | 3870 fluorescence intensity (a.u.)
17 | GAAACGCGTGATGAGTCAACAGATGACTCCGGTTCGGCCTCGGAGTCACCTAGTGCAG | 11100 fluorescence intensity (a.u.)
18 | TTCAATCTATGCGGGCATCATCTCTCTTCGCGGAATCGGTCGGAGTCACCTAGTGCAG | 3440 fluorescence intensity (a.u.)
19 | CAGCCGCCACGTCGGATAAAACCGGATTCAGAACCACCGACGGAGTCACCTAGTGCAG | 6480 fluorescence intensity (a.u.)
20 | TGGAGAGAAATAGGAAAGTGGGGAGAGGTGATGAGTGATTCGGAGTCACCTAGTGCAG | 3680 fluorescence intensity (a.u.)
21 | GCGACACAGCGGCGGCGGCGAGATCGTCTGCGTCTTCTTCCGGAGTCACCTAGTGCAG | 3240 fluorescence intensity (a.u.)

Some values from the results shown.
Under binding signal, CGCCGCTGCCCGCATCATCACCACCTCACCTCACCTCAGCCGGAGTCACCTAGTGCAG shows 4440 fluorescence intensity (a.u.)
Under binding signal, TTCGAACGAGACTGCAAGAGTGATGACCTGGAAGTCCGCACGGAGTCACCTAGTGCAG shows 5180 fluorescence intensity (a.u.)

Additional results.

Row | Sequence | binding signal
22 | TAAACTTCGGTGGCATGTCATCATCTTCAAACTCATCTTTCGGAGTCACCTAGTGCAG | 4670 fluorescence intensity (a.u.)
23 | CCAGCGTCCCAGCAGGGCAGTGACTTGGCAAACTATGCGCCGGAGTCACCTAGTGCAG | 4860 fluorescence intensity (a.u.)
24 | GGCGCCAGCCCCGGTGCCGGGGAGTGTGGCGGAGCGGGAGCGGAGTCACCTAGTGCAG | 3910 fluorescence intensity (a.u.)
25 | GGCTTACTGACATGTGGGGCCACGTGGATCCCACGCTGAGCGGAGTCACCTAGTGCAG | 16200 fluorescence intensity (a.u.)
26 | TTCCCGACCCCACCCCTCGGGCCCACGTGTCGGCGTGAGACGGAGTCACCTAGTGCAG | 6940 fluorescence intensity (a.u.)
27 | GACTTATCAGTTTCAGTTAATCTCATGTGGGCAACCAGAGCGGAGTCACCTAGTGCAG | 3230 fluorescence intensity (a.u.)
28 | CTTGGACCAAGCCGCCACCGTTTATATCCATTTGCCCACCCGGAGTCACCTAGTGCAG | 3480 fluorescence intensity (a.u.)
29 | GCGCCGGCGAGGGCGTGGCTCACGTGTGCGGTATGGGCAGCGGAGTCACCTAGTGCAG | 4060 fluorescence intensity (a.u.)
30 | GCGATCCAGCTATCCACGTGGCCAGCTTGGCTGCTCTTTCCGGAGTCACCTAGTGCAG | 20900 fluorescence intensity (a.u.)
31 | TCCTCGTAGGCTGATTGGTTTGAATACTTGAATGGTCAAGCGGAGTCACCTAGTGCAG | 3290 fluorescence intensity (a.u.)
32 | GAACTACTAAACGGTACGTCTTTTCGTTTAAAAGAATATCCGGAGTCACCTAGTGCAG | 39400 fluorescence intensity (a.u.)
33 | CCTTACCAGATGTTTGCCACGACATGGGCAACGTCATTGCCGGAGTCACCTAGTGCAG | 6060 fluorescence intensity (a.u.)
34 | CGGCGGCGTCCGAGTGTGTGTGTGTATGTAATGGACGCCGCGGAGTCACCTAGTGCAG | 4110 fluorescence intensity (a.u.)
35 | TTCAACCCATGACAATTGACAACCGGACAGGTGTGGGCGTCGGAGTCACCTAGTGCAG | 4020 fluorescence intensity (a.u.)
36 | GCATCCGTGCCATTTCATCCCTATTTAATCGTCACATCACCGGAGTCACCTAGTGCAG | 3560 fluorescence intensity (a.u.)
37 | ACCATCTGCCTGAAACTTGTGACGAAAGATCCACTTGCCGCGGAGTCACCTAGTGCAG | 5790 fluorescence intensity (a.u.)
38 | GAGGAGGGGAGCCGGCGGTGGCAACGGCCGATGGATAGGCCGGAGTCACCTAGTGCAG | 3380 fluorescence intensity (a.u.)
39 | GCGGCGGCCTCCTTCTCCACCACCTTCGTGTTCGCCATCGCGGAGTCACCTAGTGCAG | 3240 fluorescence intensity (a.u.)
40 | ACGGCCGTCGCCCGAGAGCGAACGGCCGTCTGCCACGTCACGGAGTCACCTAGTGCAG | 18400 fluorescence intensity (a.u.)
41 | TCTGTAATCGTGGTGTTCATGTGTGTGAAATTGATGTTTTCGGAGTCACCTAGTGCAG | 3840 fluorescence intensity (a.u.)
42 | GCCGAAAATATCTGGGCTGTAGCTTTTGATGGGCTAATGTCGGAGTCACCTAGTGCAG | 19400 fluorescence intensity (a.u.)

— paper PMC7819943, “Rice protein-binding microarrays: a tool to detect cis-acting elements near promoter regions in rice”
